B1: GPD2 (protein, UniProt P43304 43-727, looked up)
Glycerol-3-phosphate …: ADCISEPVNREPPSREAQLLTLQNTSEFDILVIGGGATGSGCALDAVTRGLKTALVERDDFSSGTSSRSTKLIHGGVRYLQKAIMKLDIEQYRMVKEALHERANLLEIAPHLSAPLPIMLPVYKWWQLPYYWVGIKLYDLVAGSNCLKSSYVLSKSRALEHFPMLQKDKLVGAIVYYDGQHNDARMNLAIALTAARYGAATANYMEVVSLLKKTDPQTGKVRVSGARCKDVLTGQEFDVRAKCVINATGPFTDSVRKMDDKDAAAICQPSAGVHIVMPGYYSPESMGLLDPATSDGRVIFFLPWQKMTIAGTTDTPTDVTHHPIPSEEDINFILNEVRNYLSCDVEVRRGDVLAAWSGIRPLVTDPKSADTQSISRNHVVDISESGLITIAGGKWTTYRSMAEDTINAAVKTHNLKAGPSRTVGLFLQGGKDWSPTLYIRLVQDYGLESEVAQHLAATYGDKAFEVAKMASVTGKRWPIVGVRLVSEFPYIEAEVKYGIKEYACTAVDMISRRTRLAFLNVQAAEEALPRIVELMGRELNWDDYKKQEQLETARKFLYYEMGYKSRSEQLTDRSEISLLPSDIDRYKKRFHKFDADQKGFITIVDVQRVLESINVQMDENTLHEILNEVDLNKNGQVELNEFLQLMSAIQKGRVSGSRLAILMKTAEENLDRRVPIPVDRSCGGL
B2: CAPS2 (protein, UniProt Q9BXY5 1-538, looked up)
Calcyphosin-2: MDLEVKGVAATSRSQIQPFFGRKKPLQQRWTSESWTNQNSCPPVVPRLDLGSLVDSDDEDNFSYIPLSTANLPNSSSTLGWVTPCQTPYTQYHLNKLDQNIIPENLPAPTDKCKLKYQQCKTEIKEGYKQYSQRNAENTKSNVTHKQSPRNKIDEKCVQDEEANTDDLTTLDRKAILQQGYADNSCDKQQRARKLDAEIVAAEKKKQIVAEQVMIDHLSRAVISDPEQNLAIEQKESDHILPDSKMTPLRFRKRTLHETKIRTHSTLTENVLSHKLQFDGRIVSRNGRDACRELIGFFFTHDQSLTIYEYRQFGKNRTNVLPFIQKSIYSHQCGRRKGKQYRLGDFYVGATLTFLSSDHLSLPESIKENTLLKLRITNIDQIALDSLKTASMEQEDDIIIQETNDRLVFKAIQDVLKEKLHKRGVRILTGLGKYFQQLDKEGNGLLDKADFKQALKVFHLEVSEKDFESAWLILNDNGNGKVDYGEFKRGIIGEMNEYRKSYVRKAFMKLDFNKSGSVPIINIRKCYCAKKHSQVISG
B3: PRDX1 (protein, UniProt Q06830 2-199, looked up)
Peroxiredoxin-1: SSGNAKIGHPAPNFKATAVMPDGQFKDISLSDYKGKYVVFFFYPLDFTFVCPTEIIAFSDRAEEFKKLNCQVIGASVDSHFCHLAWVNTPKKQGGLGPMNIPLVSDPKRTIAQDYGVLKADEGISFRGLFIIDDKGILRQITVNDLPVGRSVDETLRLVQAFQFTDKHGEVCPAGWKPGSDTIKPDVQKSKEYFSKQK
B4: CPA4 (protein, UniProt Q9UI42 114-421, looked up)
Carboxypeptidase A4: SSNNFNYGAYHSLEAIYHEMDNIAADFPDLARRVKIGHSFENRPMYVLKFSTGKGVRRPAVWLNAGIHSREWISQATAIWTARKIVSDYQRDPAITSILEKMDIFLLPVANPDGYVYTQTQNRLWRKTRSRNPGSSCIGADPNRNWNASFAGKGASDNPCSEVYHGPHANSEVEVKSVVDFIQKHGNFKGFIDLHSYSQLLMYPYGYSVKKAPDAEELDKVARLAAKALASVSGTEYQVGPTCTTVYPASGSSIDWAYDNGIKFAFTFELRDTGTYGFLLPANQIIPTAEETWLGLKTIMEHVRDNLY
B5: EFR3A (protein, UniProt Q14156 1-821, looked up)
Protein EFR3 homolog A: MPTRVCCCCSALRPRYKRLVDNIFPEDPKDGLVKTDMEKLTFYAVSAPEKLDRIGSYLAERLSRDVVRHRSGYVLIAMEALDQLLMACHSQSIKPFVESFLHMVAKLLESGEPKLQVLGTNSFVKFANIEEDTPSYHRRYDFFVSRFSAMCHSCHSDPEIRTEIRIAGIRGIQGVVRKTVNDELRATIWEPQHMDKIVPSLLFNMQKIEEVDSRIGPPSSPSATDKEENPAVLAENCFRELLGRATFGNMNNAVRPVFAHLDHHKLWDPNEFAVHCFKIIMYSIQAQYSHHVIQEILGHLDARKKDAPRVRAGIIQVLLEAVAIAAKGSIGPTVLEVFNTLLKHLRLSVEFEANDLQGGSVGSVNLNTSSKDNDEKIVQNAIIQTIGFFGSNLPDYQRSEIMMFIMGKVPVFGTSTHTLDISQLGDLGTRRIQIMLLRSLLMVTSGYKAKTIVTALPGSFLDPLLSPSLMEDYELRQLVLEVMHNLMDRHDNRAKLRGIRIIPDVADLKIKREKICRQDTSFMKKNGQQLYRHIYLGCKEEDNVQKNYELLYTSLALITIELANEEVVIDLIRLAIALQDSAIINEDNLPMFHRCGIMALVAAYLNFVSQMIAVPAFCQHVSKVIEIRTMEAPYFLPEHIFRDKCMLPKSLEKHEKDLYFLTNKIAESLGGSGYSVERLSVPYVPQVTDEDRLSRRKSIVDTVSIQVDILSNNVPSDDVVSNTEEITFEALKKAIDTSGMEEQEKEKRRLVIEKFQKAPFEEIAAQCESKANLLHDRLAQILELTIRPPPSPSGTLTITSGHAQYQSVPVYEMKFPDLCVY

tested on: BAF complex subunits and histone proteins; test: Mass spectrometry proteomics of purified HA-SS18 WT and HA-SS18-SSX1 complexes (Tables 5A-5E); set-up: species or system human; conditions: HA-SS18WT_CHR_peptides: protein identified in HA-SS18 WT BAF complex purification from nuclease-treated solubilized chromatin (CHR), HEK-293T

Total (total peptides), 1:
B1
B2
B3
B4
B5

Unique (unique peptides), 1:
B1
B2
B3
B4
B5

Reference: patent US20250283871A1, “COMPOSITIONS AND METHODS FOR MODULATING THE INTERACTION BETWEEN SS18-SSX FUSION ONCOPROTEIN AND NUCLEOSOMES” (Dana-Farber Cancer Institute, Inc., priority 2020, published 2025)
